Reference: article PMC8878721, “Screening of TNFR1 Binding Peptides from Deinagkistrodon acutus Venom through Phage Display” (Toxins, 2022)

Biological target: T1, TNFR1 (Homo sapiens, UniProt P19438)
T1 construct: purchased Genscript
T1 sequence (P19438 30-455): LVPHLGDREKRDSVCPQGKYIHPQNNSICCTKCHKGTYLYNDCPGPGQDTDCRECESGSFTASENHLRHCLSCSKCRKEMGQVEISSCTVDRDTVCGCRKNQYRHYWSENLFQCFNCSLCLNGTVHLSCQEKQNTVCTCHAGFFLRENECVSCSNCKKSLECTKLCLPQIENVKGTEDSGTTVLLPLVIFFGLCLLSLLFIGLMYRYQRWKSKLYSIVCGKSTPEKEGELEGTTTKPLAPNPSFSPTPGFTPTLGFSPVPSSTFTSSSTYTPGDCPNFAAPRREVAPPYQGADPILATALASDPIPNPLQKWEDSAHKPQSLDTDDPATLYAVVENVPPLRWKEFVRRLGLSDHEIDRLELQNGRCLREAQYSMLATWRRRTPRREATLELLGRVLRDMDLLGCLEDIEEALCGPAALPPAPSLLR
Test: Surface plasmon resonance measurement of DAvp-1 binding to immobilized TNFR1

CSCC[C@H](NC(=O)[C@H](CCCNC(=N)N)NC(=O)CNC(=O)[C@H](CCCNC(=N)N)NC(=O)[C@H](CC(C)C)NC(=O)[C@@H](NC(=O)[C@H](CC(C)C)NC(=O)[C@H](CO)NC(=O)[C@@H](N)CC(N)=O)C(C)C)C(=O)N[C@@H](CCCNC(=N)N)C(=O)N[C@@H](CC(=O)O)C(=O)N[C@H](C(=O)N[C@@H](CCCCN)C(=O)N[C@H](C(=O)N[C@@H](CCCNC(=N)N)C(=O)N[C@@H](CC(=O)O)C(=O)N[C@@H](CC(=O)O)C(=O)NCC(=O)N[C@@H](CCCNC(=N)N)C(=O)N[C@@H](CCCCN)C(=O)N[C@@H](CO)C(=O)N1CCC[C@H]1C(=O)N[C@@H](CO)C(=O)N[C@@H](Cc1c[nH]cn1)C(=O)N[C@@H](Cc1c[nH]cn1)C(=O)N[C@@H](CO)C(=O)N[C@@H](CCCCN)C(=O)N[C@@H](Cc1ccccc1)C(=O)N[C@@H](CO)C(=O)NCC(=O)NCC(=O)N[C@H](C(=O)N[C@@H](CCCNC(=N)N)C(=O)N[C@@H](CC(N)=O)C(=O)N[C@@H](Cc1c[nH]c2ccccc12)C(=O)N[C@@H](CCC(N)=O)C(=O)N[C@@H](CCCCN)C(=O)N[C@@H](CC(C)C)C(=O)N[C@H](C(=O)N[C@@H](CCCCN)C(=O)N[C@@H](CC(C)C)C(=O)O)C(C)C)[C@@H](C)O)C(C)C)C(C)C [DAvp-1]
Kd: 45.4 µM
